Reference: publication PMC7819943, “Rice protein-binding microarrays: a tool to detect cis-acting elements near promoter regions in rice”
The other results are listed elsewhere or left out.

Sequences of proteins named here, by UniProt entry; tags and fusion partners are left off.
UniProt Q0JBA9, entry or part of it: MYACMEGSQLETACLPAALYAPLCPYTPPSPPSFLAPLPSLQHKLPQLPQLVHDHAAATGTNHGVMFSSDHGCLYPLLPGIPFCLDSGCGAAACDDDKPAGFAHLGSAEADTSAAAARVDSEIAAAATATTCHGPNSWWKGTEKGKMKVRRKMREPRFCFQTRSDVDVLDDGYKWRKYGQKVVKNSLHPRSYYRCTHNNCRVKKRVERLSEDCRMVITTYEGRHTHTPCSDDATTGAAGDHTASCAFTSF

Target: OsWRKY34 (Oryza sativa, UniProt Q0JBA9 1-250)
Assay: protein-binding microarray (RPBM); PBS, 2% BSA, 51.3 ng/ul salmon testes DNA, 50 uM zinc acetate, 200 nM TF, 25 C, 1 h; high values mean tight binding
Conditions: protein: recombinant; tags: N-terminal polyhistidine and DsRed monomer fusion (pET32a); label: CyDye5-dUTP incorporated in the synthesized complementary strand; 3' TTTTT single-stranded linker to array surface; dsDNA, one strand shown
Method in brief: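 For the binding signal, per-feature fluorescence intensity was read in arbitrary units on an Axon 4000B scanner. Before scanning, a 2% BSA-blocked custom Agilent array made double-stranded with Cy5-dUTP was washed after 1 h at 25 °C with 200 nM protein and 50 µM zinc acetate. The proteins were Ni–NTA-purified transcription factors with N-terminal polyhistidine and DsRed fusions, expressed in E. coli BL21-CodonPlus.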

Sequence | binding signal
ATGGTGGGCTTGTATTGTCCTGCAGTCCTGCTTGTTTTACCGGAGTCACCTAGTGCAG | 10700 fluorescence intensity (a.u.)
TTCGTCTCTCTCTCGCTCGGCCCGCGTTCGGTTGCTTGTCCGGAGTCACCTAGTGCAG | 9430 fluorescence intensity (a.u.)
ACTTTCTAAACTTTGGTAATTTTCCCCTATTTCGTCCATACGGAGTCACCTAGTGCAG | 12800 fluorescence intensity (a.u.)
GGGTAGGGTAGGGGCTTGCCTCCGATTCCGTACGGACACACGGAGTCACCTAGTGCAG | 8400 fluorescence intensity (a.u.)
TTCTCCTGTCGCTTGTGTTCCTGTTTAATTTTGCTATTAACGGAGTCACCTAGTGCAG | 8160 fluorescence intensity (a.u.)
ATTGGAGGCAAAAGGGTTGGGAACAATCGGGATTTTTTTTCGGAGTCACCTAGTGCAG | 8780 fluorescence intensity (a.u.)
TCGTGTCTAGTTCCTCCTCCAAAATTTTTTTAACGTATACCGGAGTCACCTAGTGCAG | 8270 fluorescence intensity (a.u.)
TTACTCTACTCATTTAGCTTTTGGTTGGTTGGTTCCCTTCCGGAGTCACCTAGTGCAG | 14400 fluorescence intensity (a.u.)
AAACAGTTTAACTTTCATAGGCGCTTTGCAATCCCAAATCCGGAGTCACCTAGTGCAG | 8550 fluorescence intensity (a.u.)
TTTTCCACCCAATCCTGCAGCGATTCCCCGCAGAAACCTCCGGAGTCACCTAGTGCAG | 8210 fluorescence intensity (a.u.)
AATGGTTGTGATTATGTTTCTCGTGCCAAATCTGTTCGCTCGGAGTCACCTAGTGCAG | 9700 fluorescence intensity (a.u.)
TCCTGCTTTTTCTTTTTCTCCGATTAATGCGAGAATTTCTCGGAGTCACCTAGTGCAG | 8670 fluorescence intensity (a.u.)
GCCTTCGTTGCTCCGCAAGCATTTCCCGCTCGCAAATTCCCGGAGTCACCTAGTGCAG | 11300 fluorescence intensity (a.u.)
AGTTATTTTCCTTCTTCTCCATTCCCGGCCATGTTCTTCACGGAGTCACCTAGTGCAG | 10400 fluorescence intensity (a.u.)
CGCCGACCAAAAACCTAGCGATTGACATCTCGGCCCCACCCGGAGTCACCTAGTGCAG | 8080 fluorescence intensity (a.u.)
CGCATCTCTTATACCAATTTCGGGGTCTGGGATCTGGGTTCGGAGTCACCTAGTGCAG | 12400 fluorescence intensity (a.u.)
CTCGCCGGCTATTCAACCTTGGGGCCATCTTTTTTGGGGTCGGAGTCACCTAGTGCAG | 12600 fluorescence intensity (a.u.)
CAGGTCATTTTGGTGTGTGCTTTGCGGTATTAACTCGTGCCGGAGTCACCTAGTGCAG | 8700 fluorescence intensity (a.u.)
ATTCATTATTTTTAATTCCAAATTTCAGTTATTTCCTAATCGGAGTCACCTAGTGCAG | 8380 fluorescence intensity (a.u.)
CTGAGTGATGCCATTTCAAACCATACCATTTTTTTTTGGGCGGAGTCACCTAGTGCAG | 10200 fluorescence intensity (a.u.)
TGAGGAATGAATTCCCTCCTTTTCAATACCTGGGTAGGGGCGGAGTCACCTAGTGCAG | 8590 fluorescence intensity (a.u.)
CACCTATCACCCACAGGCATGAGACCTGGTATCATAATATCGGAGTCACCTAGTGCAG | 8160 fluorescence intensity (a.u.)
TCATTCATTCGCCAGTGGCAAGCTTATCGCCGGCCGGCCGCGGAGTCACCTAGTGCAG | 9900 fluorescence intensity (a.u.)

Some of the entries so far, as tab-separated lines.
Sequence	binding signal
ATTCATTATTTTTAATTCCAAATTTCAGTTATTTCCTAATCGGAGTCACCTAGTGCAG	8380 fluorescence intensity (a.u.)
CTGAGTGATGCCATTTCAAACCATACCATTTTTTTTTGGGCGGAGTCACCTAGTGCAG	10200 fluorescence intensity (a.u.)
